No constants are given. Whether binding was seen depends on the method and setting. In cells and extracts the contact can be indirect. Some results given as binding are weak or reduced against the parent protein; the word gives no strength. Sequences can lack the tags named with a protein.

Experimental findings from doi:10.1101/2021.09.16.460653 are described below.

The experiment has as its target T1, CLN6-myc (UniProt Q9NWW5).
T1 sequence: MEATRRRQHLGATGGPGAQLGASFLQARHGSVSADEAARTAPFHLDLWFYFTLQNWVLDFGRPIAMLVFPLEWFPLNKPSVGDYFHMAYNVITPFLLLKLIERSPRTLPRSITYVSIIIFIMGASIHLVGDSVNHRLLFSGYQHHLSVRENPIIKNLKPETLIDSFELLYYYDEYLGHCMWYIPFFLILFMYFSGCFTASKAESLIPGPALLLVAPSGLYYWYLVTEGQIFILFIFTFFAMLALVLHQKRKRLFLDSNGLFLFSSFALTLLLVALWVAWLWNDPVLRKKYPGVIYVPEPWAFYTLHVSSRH
Nature of the experiment: co-IP.

B1: KLC4 in PC12 cells (protein, UniProt Q5PQM2 1-619)
chain: MSGLVLGQRDEPAGHRLSQEEILGSTRLVSQGLESLHSEHQAVLQSLSHTIECLQQGGHEEGLVHEKARQLRRSMENIELGLSEAQVMLALASHLSTVESEKQKLRAQVRRLCQENQWLRDELAGTQQRLQRSEQAVAQLEEEKKHLEFLRQLRQYDEDGHSMEEKEGDASKDSLDDLFPNEEEEDSSNDLSRGQGAAAAQQGGYEIPARLRTLHNLVIQYAAQGRYEVAVPLCKQALEDLERTSGRGHPDVATMLNILALVYRDQNKYKEAAHLLNDALSIRESTLGRDHPAVAATLNNLAVLYGKRGKYKEAEPLCQRALEIREKVLGTDHPDVAKQLNNLALLCQNQGKYEAVERYYQRALAIYERQLGPDNPNVARTKNNLASCYLKQGKYSEAETLYKEILTRAHVQEFGSVDDDHKPIWMHAEEREEMSRSRSRESGTPYAEYGGWYKACRVSSPTVNTTLRNLGALYRRQGKLEAAETLEECALRSRKQGTDPISQTKVAELLGEGDGRKTMQEGPGDSVKFEGGEDASVAVEWSGDGSGTLQRSGSLGKIRDVLRRSSELLVRKLQGTEPRPSSSNMKRAASLNYLNQPNAAPLQTSRGLSASTVDLSSSS
In the case of B1, the binding result is recorded as “binds”.
